From the supplement of paper PMC8728848
The list shows a part of the results.

How the values were obtained:
Assay in all cases: glycan array binding signal (z-score within array); higher = stronger binding
Settings in all cases: glycan notation: IUPAC condensed, linker removed
[1] = target: Gal(b1-4)GlcNAc(b1-3)Gal(b1-4)GlcNAc(b1-2)[Gal(b1-4)GlcNAc(b1-3)Gal(b1-4)GlcNAc(b1-6)]Man(a1-6)[Gal(b1-4)GlcNAc(b1-3)Gal(b1-4)GlcNAc(b1-2)Man(a1-3)]Man(b1-4)GlcNAc(b1-4)GlcNAc
Procedure, shortened: (§1)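 The Consortium for Functional Glycomics database supplied 3228 glycan arrays, of which those lacking an available protein sequence were dropped. The binding signal, a within-array Z-score, was averaged across arrays of the same protein sequence and across linkers. Negative scores can be read as non-binding.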

[2] = target: Gal(b1-4)GlcNAc(b1-3)Gal(b1-4)GlcNAc(b1-2)[Gal(b1-4)GlcNAc(b1-3)Gal(b1-4)GlcNAc(b1-6)]Man(a1-6)[Gal(b1-4)GlcNAc(b1-3)Gal(b1-4)GlcNAc(b1-2)Man(a1-3)]Man(b1-4)GlcNAc(b1-4)[Fuc(a1-6)]GlcNAc
Procedure, shortened: as §1

[3] = target: Gal(b1-4)GlcNAc(b1-3)Gal(b1-4)GlcNAc(b1-3)Gal(b1-4)GlcNAc
Procedure, shortened: as §1

[4] = target: Gal(b1-4)GlcNAc(b1-3)Gal(b1-4)GlcNAc(b1-3)Gal(b1-4)GlcNAc(b1-2)Man(a1-3)[Gal(b1-4)GlcNAc(b1-3)Gal(b1-4)GlcNAc(b1-3)Gal(b1-4)GlcNAc(b1-2)Man(a1-6)]Man(b1-4)GlcNAc(b1-4)GlcNAc
Procedure, shortened: as §1

[5] = target: Gal(b1-4)GlcNAc(b1-3)Gal(b1-4)GlcNAc(b1-3)Gal(b1-4)GlcNAc(b1-2)Man(a1-3)[Gal(b1-4)GlcNAc(b1-3)Gal(b1-4)GlcNAc(b1-3)Gal(b1-4)GlcNAc(b1-2)Man(a1-6)]Man(b1-4)GlcNAc(b1-4)[Fuc(a1-6)]GlcNAc
Procedure, shortened: as §1

[6] = target: Gal(b1-4)GlcNAc(b1-3)Gal(b1-4)GlcNAc(b1-3)Gal(b1-4)GlcNAc(b1-2)[Gal(b1-4)GlcNAc(b1-3)Gal(b1-4)GlcNAc(b1-3)Gal(b1-4)GlcNAc(b1-6)]Man(a1-6)[Gal(b1-4)GlcNAc(b1-3)Gal(b1-4)GlcNAc(b1-3)Gal(b1-4)GlcNAc(b1-2)Man(a1-3)]Man(b1-4)GlcNAc(b1-4)[Fuc(a1-6)]GlcNAc
Procedure, shortened: as §1

[7] = target: Gal(b1-4)GlcNAc(b1-3)Gal(b1-4)GlcNAc(b1-3)Gal(b1-4)GlcNAc(b1-3)Gal(b1-4)GlcNAc(b1-2)Man(a1-3)[Gal(b1-4)GlcNAc(b1-3)Gal(b1-4)GlcNAc(b1-3)Gal(b1-4)GlcNAc(b1-3)Gal(b1-4)GlcNAc(b1-2)Man(a1-6)]Man(b1-4)GlcNAc(b1-4)GlcNAc
Procedure, shortened: as §1

[8] = target: Gal(b1-4)GlcNAc(b1-3)Gal(b1-4)GlcNAc(b1-3)Gal(b1-4)GlcNAc(b1-3)Gal(b1-4)GlcNAc(b1-2)Man(a1-3)[Gal(b1-4)GlcNAc(b1-3)Gal(b1-4)GlcNAc(b1-3)Gal(b1-4)GlcNAc(b1-3)Gal(b1-4)GlcNAc(b1-2)Man(a1-6)]Man(b1-4)GlcNAc(b1-4)[Fuc(a1-6)]GlcNAc
Procedure, shortened: as §1

[9] = target: Gal(b1-4)GlcNAc(b1-3)Gal(b1-4)GlcNAc(b1-3)Gal(b1-4)GlcNAc(b1-3)Gal(b1-4)GlcNAc(b1-2)[Gal(b1-4)GlcNAc(b1-3)Gal(b1-4)GlcNAc(b1-3)Gal(b1-4)GlcNAc(b1-3)Gal(b1-4)GlcNAc(b1-6)]Man(a1-6)[Gal(b1-4)GlcNAc(b1-3)Gal(b1-4)GlcNAc(b1-3)Gal(b1-4)GlcNAc(b1-3)Gal(b1-4)GlcNAc(b1-2)Man(a1-3)]Man(b1-4)GlcNAc(b1-4)[Fuc(a1-6)]GlcNAc
Procedure, shortened: as §1

[10] = target: Gal(b1-4)GlcNAc(b1-3)Gal(b1-4)GlcNAc(b1-3)Gal(b1-4)GlcNAc(b1-3)Gal(b1-4)GlcNAc(b1-3)Gal(b1-4)GlcNAc(b1-2)Man(a1-3)[Gal(b1-4)GlcNAc(b1-3)Gal(b1-4)GlcNAc(b1-3)Gal(b1-4)GlcNAc(b1-3)Gal(b1-4)GlcNAc(b1-3)Gal(b1-4)GlcNAc(b1-2)Man(a1-6)]Man(b1-4)GlcNAc(b1-4)GlcNAc
Procedure, shortened: as §1

[11] = target: Gal(b1-4)GlcNAc(b1-3)Gal(b1-4)GlcNAc(b1-3)Gal(b1-4)GlcNAc(b1-3)Gal(b1-4)GlcNAc(b1-3)Gal(b1-4)GlcNAc(b1-2)Man(a1-3)[Gal(b1-4)GlcNAc(b1-3)Gal(b1-4)GlcNAc(b1-3)Gal(b1-4)GlcNAc(b1-3)Gal(b1-4)GlcNAc(b1-3)Gal(b1-4)GlcNAc(b1-2)Man(a1-6)]Man(b1-4)GlcNAc(b1-4)[Fuc(a1-6)]GlcNAc
Procedure, shortened: as §1

[12] = target: Gal(b1-4)GlcNAc(b1-3)Gal(b1-4)GlcNAc(b1-3)Gal(b1-4)GlcNAc(b1-3)Gal(b1-4)GlcNAc(b1-3)Gal(b1-4)GlcNAc(b1-2)[Gal(b1-4)GlcNAc(b1-3)Gal(b1-4)GlcNAc(b1-3)Gal(b1-4)GlcNAc(b1-3)Gal(b1-4)GlcNAc(b1-3)Gal(b1-4)GlcNAc(b1-6)]Man(a1-6)[Gal(b1-4)GlcNAc(b1-3)Gal(b1-4)GlcNAc(b1-3)Gal(b1-4)GlcNAc(b1-3)Gal(b1-4)GlcNAc(b1-3)Gal(b1-4)GlcNAc(b1-2)Man(a1-3)]Man(b1-4)GlcNAc(b1-4)[Fuc(a1-6)]GlcNAc
Procedure, shortened: as §1

[13] = target: Gal(b1-4)GlcNAc(b1-3)Gal(b1-4)GlcNAc(b1-3)Gal(b1-4)GlcNAc(b1-3)Gal(b1-4)GlcNAc(b1-3)Gal(b1-4)GlcNAc(b1-3)Gal(b1-4)GlcNAc(b1-2)Man(a1-3)[Gal(b1-4)GlcNAc(b1-3)Gal(b1-4)GlcNAc(b1-3)Gal(b1-4)GlcNAc(b1-3)Gal(b1-4)GlcNAc(b1-3)Gal(b1-4)GlcNAc(b1-3)Gal(b1-4)GlcNAc(b1-2)Man(a1-6)]Man(b1-4)GlcNAc(b1-4)GlcNAc
Procedure, shortened: as §1

[14] = target: Gal(b1-4)GlcNAc(b1-3)Gal(b1-4)GlcNAc(b1-3)GalNAc
Procedure, shortened: as §1

[15] = target: Gal(b1-4)GlcNAc(b1-3)Gal(b1-4)GlcNAc(b1-3)[Gal(b1-4)GlcNAc(b1-3)Gal(b1-4)GlcNAc(b1-6)]GalNAc
Procedure, shortened: as §1

[16] = target: Gal(b1-4)GlcNAc(b1-3)Gal(b1-4)GlcNAc(b1-6)[Gal(b1-3)]GalNAc
Procedure, shortened: as §1

[17] = target: Gal(b1-4)GlcNAc(b1-3)Gal(b1-4)[Fuc(a1-3)]GlcNAc(b1-3)Gal(b1-4)[Fuc(a1-3)]GlcNAc
Procedure, shortened: as §1

[18] = target: Gal(b1-4)GlcNAc(b1-3)GalNAc
Procedure, shortened: as §1

[19] = target: Gal(b1-4)GlcNAc(b1-3)[Fuc(a1-3)GlcNAc(b1-6)]Gal(b1-4)Glc
Procedure, shortened: as §1

[20] = target: Gal(b1-4)GlcNAc(b1-3)[Gal(b1-4)GlcNAc(b1-6)]Gal(b1-4)GlcNAc
Procedure, shortened: as §1

[21] = target: Gal(b1-4)GlcNAc(b1-3)[GlcNAc(b1-6)]Gal(b1-4)GlcNAc
Procedure, shortened: as §1

[22] = target: Gal(b1-4)GlcNAc(b1-6)Gal(b1-4)GlcNAc
Procedure, shortened: as §1

[23] = target: Gal(b1-4)GlcNAc(b1-6)GalNAc
Procedure, shortened: as §1

[24] = target: Gal(b1-4)GlcNAc(b1-6)[Gal(b1-3)]GalNAc
Procedure, shortened: as §1

[25] = target: Gal(b1-4)GlcNAc(b1-6)[Gal(b1-4)GlcNAc(b1-3)]GalNAc
Procedure, shortened: as §1

Gal(b1-4)GlcNAc6P = target: Gal(b1-4)GlcNAc6P
Procedure, shortened: as §1

Gal(b1-6)Gal = target: Gal(b1-6)Gal
Procedure, shortened: as §1

Gal3S(b1-3)GalNAc = target: Gal3S(b1-3)GalNAc
Procedure, shortened: as §1

Gal3S(b1-3)GlcNAc = target: Gal3S(b1-3)GlcNAc
Procedure, shortened: as §1

[26] = target: Gal3S(b1-3)[Fuc(a1-4)]GlcNAc
Procedure, shortened: as §1

B1: Awp1 (Candida glabrata) (protein)
chain: MSLITIFAFLIKATLVLSLDILTPTTLTGDQTFNEDVSVVSSLTLNDGSQYLFNNLLQIAPSSASVTANALAAVSVFTFSLPPSSSLSNSGTLIISNSNTGPSTEQHIVITPNVMANTGTITLSLAHTNTDSSSTLIIDPVTFYNTGTINYESIGSETNDPSLTGNILSIGSSGRTLQNLGTINLNAANSYYLLGTITENSGSINVQKGFLYVNALDFIGNTINLSTTTALAFISPVSQVVRVRGVFFGNIIASVGSSGTFSYNTQTGILTVTTNGVYSYDIGCGYNPALMSGQQETLSFQGNPYDTFLVLVNQPIPSDLTCAAVSSSITPSSSVEPSSSVVPSSSVEPSSSVEPSSSVEPSSSVEPSSSVEPSSSVEPSSSVEPSSSVEPSSSVEPSSSVEPSSSVEPSSSVEPSSSVEPSSSVEPSSSVEPSSSVEPSSSVEPSSSVEPSSSVEPSSLIVPSSSVEPSSSVLPSSSVVPSSSVEPSTPPIPSSSVEPSSSVVPSSPAVPSSSVEPSTPPIPSSSVVSASVFDTSSTLPSSPSVPPSSVSPSTISTPSSSAAPSSFCPTCVSSGTPPAPSSSAIVPTSSAGGGNGGDNREPGAAGQPGAAGQPGAAGQPGAAGQPGAAGQPGAAGQPGAAGQPGAAGQPGAAGQPGAAGQPGAGFGVGSEQPTPGAGAGSGSADGNQSGTGSGTGNGQQGSGQAGSGQAGSGQEGSGQAGSGQAGSGQAGSGQAGSGQAGLDNTASGQSEGGQASAMDGDQSGRDGQSNSGSLLQPNAQQGTGSGTGSDIGADQASGESPGQIGDAQPGSGTDQSSGRHSLAAEARTSQSHSLAADARTRSTTRQTSVIAPDTAPGTASGTAPGTAPGTAVVTTFHGCGTVNHKGMINILLALALLVLL
glycan array binding signal (z-score) [1]: -0.003 | glycan array binding signal (z-score) [2]: -0.77 | glycan array binding signal (z-score) [3]: 1.27 | glycan array binding signal (z-score) [4]: 1.2 | glycan array binding signal (z-score) [5]: -0.421 | glycan array binding signal (z-score) [6]: 0.728 | glycan array binding signal (z-score) [7]: -0.315 | glycan array binding signal (z-score) [8]: 2.42 | glycan array binding signal (z-score) [9]: 0.79 | glycan array binding signal (z-score) [10]: 0.16 | glycan array binding signal (z-score) [11]: 1.18 | glycan array binding signal (z-score) [12]: 0.917 | glycan array binding signal (z-score) [13]: -0.272 | glycan array binding signal (z-score) [14]: 0.867 | glycan array binding signal (z-score) [15]: 0.058 | glycan array binding signal (z-score) [16]: 0.7 | glycan array binding signal (z-score) [17]: 0.067 | glycan array binding signal (z-score) [18]: 0.56 | glycan array binding signal (z-score) [19]: 1.99 | glycan array binding signal (z-score) [20]: -0.342 | glycan array binding signal (z-score) [21]: -0.821 | glycan array binding signal (z-score) [22]: -0.366 | glycan array binding signal (z-score) [23]: -0.061 | glycan array binding signal (z-score) [24]: 0.353 | glycan array binding signal (z-score) [25]: -0.215 | glycan array binding signal (z-score) (Gal(b1-4)GlcNAc6P): 0.917 | glycan array binding signal (z-score) (Gal(b1-6)Gal): -0.495 | glycan array binding signal (z-score) (Gal3S(b1-3)GalNAc): -0.952 | glycan array binding signal (z-score) (Gal3S(b1-3)GlcNAc): 0.654 | glycan array binding signal (z-score) [26]: 0.375
